Measured values taken from the supplement of paper PMC10849652.
Some of the results follow.

Sequences of proteins named here, by UniProt entry; tags and fusion partners are left off. A change or cut given only in a name is not applied to a line headed by its entry.
UniProt Q8N5Y8: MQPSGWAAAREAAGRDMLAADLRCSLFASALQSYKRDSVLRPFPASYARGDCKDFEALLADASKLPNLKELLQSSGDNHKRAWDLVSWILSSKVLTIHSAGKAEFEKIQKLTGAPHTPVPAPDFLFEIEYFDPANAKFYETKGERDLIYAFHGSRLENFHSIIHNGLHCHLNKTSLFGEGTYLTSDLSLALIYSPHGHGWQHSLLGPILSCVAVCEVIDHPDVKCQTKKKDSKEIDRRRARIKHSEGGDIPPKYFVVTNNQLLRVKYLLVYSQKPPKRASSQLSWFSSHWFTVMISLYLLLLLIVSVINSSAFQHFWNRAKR
UniProt Q7Z2X7: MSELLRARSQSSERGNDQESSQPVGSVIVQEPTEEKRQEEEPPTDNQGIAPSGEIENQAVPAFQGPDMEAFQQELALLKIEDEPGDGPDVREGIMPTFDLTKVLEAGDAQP
UniProt H7BZJ3: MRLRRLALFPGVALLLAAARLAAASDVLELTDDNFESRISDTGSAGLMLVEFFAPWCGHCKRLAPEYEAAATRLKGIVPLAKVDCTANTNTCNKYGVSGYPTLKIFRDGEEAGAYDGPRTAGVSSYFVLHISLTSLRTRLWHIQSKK
UniProt O43924: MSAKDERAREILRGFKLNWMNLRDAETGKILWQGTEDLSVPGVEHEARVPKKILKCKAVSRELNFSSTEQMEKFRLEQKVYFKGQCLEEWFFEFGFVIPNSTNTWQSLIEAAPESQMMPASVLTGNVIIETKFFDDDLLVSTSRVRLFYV
UniProt Q13310, whole entry, looked up: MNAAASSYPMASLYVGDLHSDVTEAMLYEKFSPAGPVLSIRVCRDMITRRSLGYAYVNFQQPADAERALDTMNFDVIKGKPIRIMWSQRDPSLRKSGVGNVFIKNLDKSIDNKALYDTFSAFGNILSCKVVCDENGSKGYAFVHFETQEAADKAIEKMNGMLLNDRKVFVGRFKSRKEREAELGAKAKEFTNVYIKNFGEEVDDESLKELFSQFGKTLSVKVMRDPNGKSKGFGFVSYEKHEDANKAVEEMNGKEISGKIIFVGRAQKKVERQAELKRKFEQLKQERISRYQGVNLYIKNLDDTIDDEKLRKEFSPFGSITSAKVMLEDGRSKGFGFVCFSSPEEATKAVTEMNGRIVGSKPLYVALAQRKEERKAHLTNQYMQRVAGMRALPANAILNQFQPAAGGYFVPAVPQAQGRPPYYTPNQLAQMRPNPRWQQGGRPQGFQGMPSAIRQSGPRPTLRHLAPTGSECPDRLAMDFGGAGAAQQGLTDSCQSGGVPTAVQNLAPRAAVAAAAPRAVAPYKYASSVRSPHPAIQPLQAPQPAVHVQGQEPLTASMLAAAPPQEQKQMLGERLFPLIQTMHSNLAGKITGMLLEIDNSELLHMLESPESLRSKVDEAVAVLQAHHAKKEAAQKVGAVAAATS
UniProt P29122: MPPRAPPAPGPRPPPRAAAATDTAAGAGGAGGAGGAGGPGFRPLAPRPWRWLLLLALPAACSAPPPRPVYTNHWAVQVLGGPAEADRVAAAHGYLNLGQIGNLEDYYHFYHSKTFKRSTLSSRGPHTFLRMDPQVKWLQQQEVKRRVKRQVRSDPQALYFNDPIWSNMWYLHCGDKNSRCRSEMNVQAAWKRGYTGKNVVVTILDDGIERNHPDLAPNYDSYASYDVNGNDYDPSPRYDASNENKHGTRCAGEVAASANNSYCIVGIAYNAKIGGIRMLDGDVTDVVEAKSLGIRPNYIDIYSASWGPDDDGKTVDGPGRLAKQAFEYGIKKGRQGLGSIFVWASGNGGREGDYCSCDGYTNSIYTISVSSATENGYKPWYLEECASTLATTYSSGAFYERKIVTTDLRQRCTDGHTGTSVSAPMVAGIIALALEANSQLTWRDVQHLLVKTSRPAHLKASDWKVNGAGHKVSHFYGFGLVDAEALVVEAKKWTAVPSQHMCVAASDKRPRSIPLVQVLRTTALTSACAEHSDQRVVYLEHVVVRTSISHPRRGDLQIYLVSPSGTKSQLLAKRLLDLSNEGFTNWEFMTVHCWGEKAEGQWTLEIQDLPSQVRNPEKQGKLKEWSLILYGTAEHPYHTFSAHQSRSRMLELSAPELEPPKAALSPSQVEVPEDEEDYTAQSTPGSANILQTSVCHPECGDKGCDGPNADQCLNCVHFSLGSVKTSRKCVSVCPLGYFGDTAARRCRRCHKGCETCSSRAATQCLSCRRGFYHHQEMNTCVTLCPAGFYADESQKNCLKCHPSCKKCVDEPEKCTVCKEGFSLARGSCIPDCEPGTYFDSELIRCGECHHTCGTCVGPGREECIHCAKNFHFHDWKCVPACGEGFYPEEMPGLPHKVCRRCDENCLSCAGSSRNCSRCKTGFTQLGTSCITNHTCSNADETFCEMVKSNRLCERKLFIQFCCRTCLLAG
UniProt Q86W56: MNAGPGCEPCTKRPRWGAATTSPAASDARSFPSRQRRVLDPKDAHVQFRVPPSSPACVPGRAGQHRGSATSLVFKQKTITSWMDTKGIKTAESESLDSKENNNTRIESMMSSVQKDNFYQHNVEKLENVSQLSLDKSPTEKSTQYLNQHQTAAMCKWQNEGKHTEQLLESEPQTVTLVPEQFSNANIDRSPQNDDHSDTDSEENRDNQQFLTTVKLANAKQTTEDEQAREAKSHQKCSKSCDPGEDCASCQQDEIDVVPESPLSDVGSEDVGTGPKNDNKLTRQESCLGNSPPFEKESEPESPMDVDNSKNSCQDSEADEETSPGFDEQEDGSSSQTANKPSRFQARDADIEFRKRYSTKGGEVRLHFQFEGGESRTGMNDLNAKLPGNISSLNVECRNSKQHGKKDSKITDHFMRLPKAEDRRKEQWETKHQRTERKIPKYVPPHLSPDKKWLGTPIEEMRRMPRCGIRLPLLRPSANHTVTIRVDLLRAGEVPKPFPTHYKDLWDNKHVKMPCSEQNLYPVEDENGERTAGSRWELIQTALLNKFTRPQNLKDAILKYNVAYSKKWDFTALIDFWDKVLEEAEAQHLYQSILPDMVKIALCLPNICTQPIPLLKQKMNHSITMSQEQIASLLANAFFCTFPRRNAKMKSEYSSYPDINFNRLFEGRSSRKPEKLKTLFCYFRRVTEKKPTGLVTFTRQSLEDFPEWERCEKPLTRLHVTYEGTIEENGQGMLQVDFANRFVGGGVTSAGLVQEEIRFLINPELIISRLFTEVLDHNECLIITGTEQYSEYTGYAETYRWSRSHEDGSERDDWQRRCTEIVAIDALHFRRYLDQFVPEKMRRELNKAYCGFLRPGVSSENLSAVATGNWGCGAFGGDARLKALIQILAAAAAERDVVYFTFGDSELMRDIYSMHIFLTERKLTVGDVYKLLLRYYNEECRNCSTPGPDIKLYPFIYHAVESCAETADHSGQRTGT
UniProt Q9H813: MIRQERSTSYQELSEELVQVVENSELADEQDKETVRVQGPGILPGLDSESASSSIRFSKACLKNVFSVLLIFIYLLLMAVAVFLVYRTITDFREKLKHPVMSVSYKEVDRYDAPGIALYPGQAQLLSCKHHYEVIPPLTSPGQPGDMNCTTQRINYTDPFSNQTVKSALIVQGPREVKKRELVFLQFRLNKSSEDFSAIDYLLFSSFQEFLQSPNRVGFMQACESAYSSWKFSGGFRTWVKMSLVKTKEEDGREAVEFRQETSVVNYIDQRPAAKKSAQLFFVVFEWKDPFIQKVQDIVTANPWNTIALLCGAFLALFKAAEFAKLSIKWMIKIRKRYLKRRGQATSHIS
UniProt O94913, whole entry, looked up: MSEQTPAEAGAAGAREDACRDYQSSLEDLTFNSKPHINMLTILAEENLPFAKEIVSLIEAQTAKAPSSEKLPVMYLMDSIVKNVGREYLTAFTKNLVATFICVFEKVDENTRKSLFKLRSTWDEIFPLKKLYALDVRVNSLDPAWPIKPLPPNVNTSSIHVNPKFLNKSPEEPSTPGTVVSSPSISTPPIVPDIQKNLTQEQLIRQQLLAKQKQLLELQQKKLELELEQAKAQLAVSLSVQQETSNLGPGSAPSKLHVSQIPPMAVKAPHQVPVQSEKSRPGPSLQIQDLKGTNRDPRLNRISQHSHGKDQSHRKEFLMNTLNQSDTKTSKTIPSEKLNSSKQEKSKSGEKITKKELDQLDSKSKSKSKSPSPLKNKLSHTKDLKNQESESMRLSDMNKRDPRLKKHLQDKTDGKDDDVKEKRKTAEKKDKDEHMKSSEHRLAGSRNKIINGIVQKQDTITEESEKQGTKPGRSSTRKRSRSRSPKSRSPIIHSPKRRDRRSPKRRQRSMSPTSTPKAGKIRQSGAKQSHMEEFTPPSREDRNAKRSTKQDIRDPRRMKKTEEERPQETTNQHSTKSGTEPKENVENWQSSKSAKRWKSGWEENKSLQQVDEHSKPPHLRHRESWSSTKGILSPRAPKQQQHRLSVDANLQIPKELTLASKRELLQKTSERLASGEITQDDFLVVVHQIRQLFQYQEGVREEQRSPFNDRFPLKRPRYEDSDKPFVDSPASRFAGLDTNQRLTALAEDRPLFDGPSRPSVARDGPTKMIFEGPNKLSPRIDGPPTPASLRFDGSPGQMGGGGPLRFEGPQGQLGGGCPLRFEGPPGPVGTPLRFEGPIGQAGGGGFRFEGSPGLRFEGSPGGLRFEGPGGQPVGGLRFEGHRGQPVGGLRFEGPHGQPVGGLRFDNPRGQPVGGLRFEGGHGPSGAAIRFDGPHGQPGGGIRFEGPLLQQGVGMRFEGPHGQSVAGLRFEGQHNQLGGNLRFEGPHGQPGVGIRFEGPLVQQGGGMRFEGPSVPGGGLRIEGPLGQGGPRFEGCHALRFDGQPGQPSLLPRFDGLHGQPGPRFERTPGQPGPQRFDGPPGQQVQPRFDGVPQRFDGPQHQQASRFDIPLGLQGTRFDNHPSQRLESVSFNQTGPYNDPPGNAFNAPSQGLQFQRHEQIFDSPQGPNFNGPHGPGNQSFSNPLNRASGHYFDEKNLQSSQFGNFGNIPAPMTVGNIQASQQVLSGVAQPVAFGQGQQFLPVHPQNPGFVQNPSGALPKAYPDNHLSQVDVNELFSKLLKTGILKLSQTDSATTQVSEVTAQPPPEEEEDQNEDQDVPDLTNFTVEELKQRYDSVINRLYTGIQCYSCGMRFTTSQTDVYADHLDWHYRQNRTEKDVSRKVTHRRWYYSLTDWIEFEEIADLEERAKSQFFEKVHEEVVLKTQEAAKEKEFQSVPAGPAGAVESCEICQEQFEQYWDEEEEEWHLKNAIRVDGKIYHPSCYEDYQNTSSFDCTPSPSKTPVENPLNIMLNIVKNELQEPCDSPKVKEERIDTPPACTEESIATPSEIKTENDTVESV
UniProt Q9H074: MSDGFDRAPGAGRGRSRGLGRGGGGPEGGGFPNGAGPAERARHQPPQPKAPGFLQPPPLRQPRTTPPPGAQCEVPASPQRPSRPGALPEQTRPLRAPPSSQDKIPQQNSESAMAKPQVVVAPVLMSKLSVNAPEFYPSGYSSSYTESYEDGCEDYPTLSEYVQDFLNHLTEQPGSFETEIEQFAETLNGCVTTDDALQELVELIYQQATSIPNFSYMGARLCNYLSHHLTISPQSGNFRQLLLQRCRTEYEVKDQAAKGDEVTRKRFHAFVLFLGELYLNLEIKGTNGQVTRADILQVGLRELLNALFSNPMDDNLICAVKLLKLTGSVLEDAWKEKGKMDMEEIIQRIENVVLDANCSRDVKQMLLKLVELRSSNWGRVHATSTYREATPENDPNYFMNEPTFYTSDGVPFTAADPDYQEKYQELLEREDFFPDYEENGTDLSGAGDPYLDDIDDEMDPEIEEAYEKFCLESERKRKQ
UniProt P51160: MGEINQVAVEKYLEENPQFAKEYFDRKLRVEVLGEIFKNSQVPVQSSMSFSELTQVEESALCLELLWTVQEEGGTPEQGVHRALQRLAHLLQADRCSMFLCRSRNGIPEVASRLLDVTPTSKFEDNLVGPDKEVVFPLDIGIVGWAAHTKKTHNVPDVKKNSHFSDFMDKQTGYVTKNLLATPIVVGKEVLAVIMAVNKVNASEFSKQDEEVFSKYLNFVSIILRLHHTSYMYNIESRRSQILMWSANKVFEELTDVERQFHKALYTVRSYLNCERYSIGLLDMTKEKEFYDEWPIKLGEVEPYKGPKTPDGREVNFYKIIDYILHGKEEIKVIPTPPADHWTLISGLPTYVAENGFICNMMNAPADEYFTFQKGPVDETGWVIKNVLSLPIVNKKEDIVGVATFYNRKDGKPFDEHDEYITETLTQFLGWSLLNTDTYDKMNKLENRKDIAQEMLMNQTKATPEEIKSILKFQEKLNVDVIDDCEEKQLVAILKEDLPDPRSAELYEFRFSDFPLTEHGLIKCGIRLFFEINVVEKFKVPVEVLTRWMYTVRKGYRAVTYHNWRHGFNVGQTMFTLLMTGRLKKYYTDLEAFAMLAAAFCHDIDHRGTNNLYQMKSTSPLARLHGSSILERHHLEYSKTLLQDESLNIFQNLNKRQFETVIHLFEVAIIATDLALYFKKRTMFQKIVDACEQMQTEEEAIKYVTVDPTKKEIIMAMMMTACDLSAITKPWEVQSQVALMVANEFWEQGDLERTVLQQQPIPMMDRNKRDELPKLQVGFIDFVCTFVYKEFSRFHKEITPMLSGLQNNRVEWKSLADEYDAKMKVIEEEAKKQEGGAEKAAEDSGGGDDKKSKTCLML

compound: C1=CC2=C(C=CC(=C2)/C=C\3/C(=O)NC(=NCC4=CC=CS4)S3)N=C1; test: log2 fold change, soluble protein after heating vs DMSO (PISA); higher = thermal stabilisation; K562 cells, 10 uM, 30 min; active = over 0.2 and 3.5 SD of the protein, either way, in both replicates (recomputed)
How it was run: (§1)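 Soluble protein was quantified by TMTpro 16plex LC-MS/MS after channel sums were equalised. It was obtained as the supernatant after 21,000xg for 90 min from pooled aliquots of K562 cells (2×10^6 cells/mL, 10 μM compound, 30 min) heated for 3 min across 48°C-58°C and extracted in PBS with 0.5% NP-40 at 4°C. Thermal stability values are relative to control samples and come from duplicates. They are given as log2 fold changes.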

log2 fold change, inactive:
PAICS (UniProt D6RF62) 0.437
PARP16 isoform 3 (UniProt Q8N5Y8) -0.029
PAGE2 (UniProt Q7Z2X7) -0.019
PAFAH2 (UniProt Q99487) -0.144
PDIA3 (UniProt H7BZJ3) -0.128
PDE6D (UniProt O43924) 0.078
PABPC4 isoform 3 (UniProt Q13310) -0.005
PAFAH1B1 (UniProt I3L3N5) 0.258
PCSK6 isoform 7 (UniProt P29122) 0.234
PDIA4, A0A499FI48 -0.066
PARG (UniProt Q86W56) 0.063
PACC1 (UniProt Q9H813) 0.138
PCBP2 (UniProt F8VRH0) -0.26
PCF11 (UniProt O94913) -0.082
PAIP1 (UniProt Q9H074) 0.012
PDE6C (UniProt P51160) 0.255
PEX10 isoform 2 (UniProt O60683) -0.085

compound: C1=CC2=NC=CN=C2C=C1/C=C/3\C(=O)NC(=O)S3; test: as above
How it was run: as §1

log2 fold change, inactive:
PAN2 (UniProt Q504Q3) 0.044
PARP16 isoform 3 (UniProt Q8N5Y8) 0.102
PDP1 isoform 2 (UniProt Q9P0J1) -0.261
PAGE2 (UniProt Q7Z2X7) 0.152
PAFAH2 (UniProt Q99487) -0.02
PAXBP1 (UniProt Q9Y5B6) 0.29
PDIA3 (UniProt H7BZJ3) -0.007
PDE6D (UniProt O43924) 0.004
PCBP2 (UniProt F8VZX2) -0.019
PABPN1 (UniProt Q86U42) 0.156
PABPC4 isoform 3 (UniProt Q13310) -0.002
PCID2 (UniProt Q5JVF3) 0.028
PAFAH1B1 (UniProt I3L3N5) 0.167
PCSK6 isoform 7 (UniProt P29122) 0.06
PDCD2 (UniProt Q16342) -0.108
PARG (UniProt Q86W56) 0.059
PACC1 (UniProt Q9H813) -0.002
PCBP2 (UniProt F8VRH0) -0.153
PCNX1 (UniProt Q96RV3) -0.006
PCF11 (UniProt O94913) 0.111
PCGF5 (UniProt Q86SE9) -0.219
PDZD11 isoform 2 (UniProt Q5EBL8) 0.046
PAIP1 (UniProt Q9H074) 0.034
PCMTD1 (UniProt Q96MG8) 0.21
PDE6C (UniProt P51160) 0.094

compound: C1=CC=C(C=C1)C2=NC(=C(N2)C3=CC=NC=C3)C4=CC(=C(C=C4)Cl)O; test: as above
How it was run: as §1

log2 fold change, inactive:
PAICS (UniProt D6RF62) -0.533
PAFAH2 (UniProt Q99487) -0.008
PAXBP1 (UniProt Q9Y5B6) -0.231
PAF1 (UniProt Q8N7H5) 0.015
PCBP2 (UniProt F8VZX2) -0.008
PACSIN3 (UniProt Q9UKS6) -0.052
PABPC4 isoform 3 (UniProt Q13310) -0.022
PCID2 (UniProt Q5JVF3) -0.005
PAN3 (UniProt Q58A45) 0.128
PDIA4, A0A499FI48 -0.1
PARG (UniProt Q86W56) 0.043
PCMTD2 (UniProt Q9NV79) -0.087
PCF11 (UniProt O94913) -0.191
PCGF5 (UniProt Q86SE9) -0.1
PDZD11 isoform 2 (UniProt Q5EBL8) 0.001
PAIP1 (UniProt Q9H074) -0.065
PCMTD1 (UniProt Q96MG8) 0.08
PDE6C (UniProt P51160) 0.101

compound: C1=CC=C2C(=C1)C3=NNC4=CC=CC(=C43)C2=O; test: as above
How it was run: as §1

log2 fold change, inactive:
PAICS (UniProt D6RF62) -0.268
PARP16 isoform 3 (UniProt Q8N5Y8) -0.013
PAGE2 (UniProt Q7Z2X7) 0.144
PAFAH2 (UniProt Q99487) 0.011
PDIA3 (UniProt H7BZJ3) 0.071
PDE6D (UniProt O43924) 0.115
PABPC4 isoform 3 (UniProt Q13310) -0.066
PAFAH1B1 (UniProt I3L3N5) -0.08
PCSK6 isoform 7 (UniProt P29122) -0.017
PDIA4, A0A499FI48 0.124
PARG (UniProt Q86W56) 0.063
PACC1 (UniProt Q9H813) -0.023
PCBP2 (UniProt F8VRH0) -0.04
PCF11 (UniProt O94913) 0.083
PAIP1 (UniProt Q9H074) -0.05
PDE6C (UniProt P51160) 0.024
PEX10 isoform 2 (UniProt O60683) 0.039
